Test results taken from patent publication US20210009693A1.
These are yes or no findings as the source states them, for the method shown. Some binding calls cover weakened binding; strength is not graded here.

Chains of the proteins cited; added tags and fusions are not shown. Lines headed by an entry give the natural chain unless they say otherwise; changes in a name come on top. A line that says so, or that is headed by a name, gives the form on record, which may keep a tag or linker. Residues count along the entry.
UniProt Q9NZQ7: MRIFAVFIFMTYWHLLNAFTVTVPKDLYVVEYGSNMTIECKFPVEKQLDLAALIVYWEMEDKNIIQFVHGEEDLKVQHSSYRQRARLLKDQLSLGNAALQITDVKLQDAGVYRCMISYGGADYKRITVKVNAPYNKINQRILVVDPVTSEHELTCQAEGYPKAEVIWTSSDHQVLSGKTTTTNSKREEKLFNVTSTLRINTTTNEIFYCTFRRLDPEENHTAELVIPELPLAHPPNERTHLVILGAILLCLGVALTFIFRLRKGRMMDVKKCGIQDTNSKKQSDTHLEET
human PD-L1 expressed on cells: residues 19-290 of Q9NZQ7
Recombinant Human PD-L1/CD274 Protein (hPD-L1-his) (Q9NZQ7, form named): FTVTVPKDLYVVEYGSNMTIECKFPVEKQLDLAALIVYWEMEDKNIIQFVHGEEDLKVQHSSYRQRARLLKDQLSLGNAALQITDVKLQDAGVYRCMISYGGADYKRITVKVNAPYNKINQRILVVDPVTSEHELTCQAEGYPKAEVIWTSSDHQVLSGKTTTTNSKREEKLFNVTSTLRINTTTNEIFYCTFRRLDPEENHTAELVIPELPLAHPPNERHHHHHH

Columns and labels:
[1] = molecular target: Recombinant Human PD-L1/CD274 Protein (hPD-L1-his) (human) (UniProt Q9NZQ7); assay: ELISA on coated hPD-L1-his
[2] = molecular target: human PD-L1 expressed on cells (human) (UniProt Q9NZQ7); assay: FACS, IFN-gamma stimulated HCC827 cells
[3] = molecular target: Human PD-L1/CD274 with C-Fc Tag (hPD-L1-Fc) (human) (UniProt Q9NZQ7); assay: blocking ELISA on coated hPD-L1-Fc; blocked ligand: biotinylated hPD-1-N297A
[4] = molecular target: human PD-L1 expressed on cells (human) (UniProt Q9NZQ7); assay: flow cytometry on anti-CD3/anti-CD28-activated human blood cells
[5] = molecular target: human PD-L1 expressed on cells (human) (UniProt Q9NZQ7); assay: blocking FACS on HCC827 cells; blocked ligand: biotinylated hPD-1-N297A
[6] = molecular target: wild type human PD-L1-Fc protein (SEQ ID NO: 107) (human); assay: ELISA on hPD-L1-Fc captured from 293T supernatant, 0.5 ug/ml biotinylated antibody
[7] = molecular target: human PD-L1 expressed on cells (human) (UniProt Q9NZQ7); assay: flow cytometry (relative mean fluorescence) on human peripheral blood cells activated 3 days with anti-CD3 and anti-CD28; detection with anti-human IgG-APC
[8] = molecular target: human PD-L1 expressed on cells (human) (UniProt Q9NZQ7); assay: flow cytometry (relative mean fluorescence) on human peripheral blood cells activated with anti-CD3 and anti-CD28, beside unstimulated cells; detection with anti-human IgG-APC
[9] = molecular target: Recombinant Human PD-L1/CD274 Protein (hPD-L1-his) (human) (UniProt Q9NZQ7); assay: ELISA on coated hPD-L1-his; bound at pH7.4, then 2 h at pH5.5
[10] = molecular target: Recombinant Human PD-L1/CD274 Protein (hPD-L1-his) (human) (UniProt Q9NZQ7); assay: ELISA on coated hPD-L1-his; bound at pH7.4, then 2 h at pH7.4

Measured: binding

B1: 23A11-H5L3 (antibody, V domains shown)
VH: LVQLVQSGAEVKKPGASVKVSCKASGYIFTTYWIHWVRQAPGQGLEWIGMIQPNSGGTKYNDQFKNRVTLTVDTSISTAYMELSRLRSDDTAVYYCARGAGTVDYFDYWGQGTTLSISS
VL: DIVLTQSPASLAVSVGQRATITCRASESVDIYGNSFMHWYQQKPGQSPKLLIYRASNLESGIPARFSGSGSRTDFTLTINPVEANDTATYYCHQSNDDPYTFGGGTKLETK
binds: [1] | [2] | [3]

B2: 23A11-H5L5 (antibody, V domains shown)
VH: LVQLVQSGAEVKKPGASVKVSCKASGYIFTTYWIHWVRQAPGQGLEWIGMIQPNSGGTKYNDQFKNRVTLTVDTSISTAYMELSRLRSDDTAVYYCARGAGTVDYFDYWGQGTTLSISS
VL: DIVLTQSPASLAVSVGQRATITCRASESVDIYGNSFMHWYQQKPGQAPKLLIYRASNLESGIPARFSGSGSRTDFTLTINPVEANDTATYYCQQSNDDPYTFGGGTKLETK
binds: [1] | [2] | [3]

B3: 23F11-H4L4 (antibody, V domains shown)
VH: QVQLVQSGAEVKKPGASVKLSCKASGYIFTTYWMHWVKQRPGQGLEWIGMIQPNSGGTKYNEKFKKKATLTVDKSISTAYMELSRLTSDDTAVYYCARGAGTVDYFDYWGQGSTLTVSS
VL: DIVLTQSPASLAVSVGQRATITCRASESVDIYGNSFMHWYQQKPGQPPKLLIYRASNLESGIPARFSGSGSRTDFTLTINPVEANDTATYYCQQSTEDPYTFGGGTKLEIK
binds: [2] | [4] | [5] | [3] | [6] | [7] | [8]

B4: 23A11-H3L5 (antibody, V domains shown)
VH: LVQLVQSGAEVKKPGASVKLSCKASGYIFTTYWIHWVKQRPGQGLEWIGMIQPNSGGTKYNDQFKNRATLTVDKSISTAYMELSRLTSDDTAVYYCARGAGTVDYFDYWGQGTTLSISS
VL: DIVLTQSPASLAVSVGQRATITCRASESVDIYGNSFMHWYQQKPGQAPKLLIYRASNLESGIPARFSGSGSRTDFTLTINPVEANDTATYYCQQSNDDPYTFGGGTKLETK
binds: [2] | [5] | [3] | [6]

B5: 23A11-H3L5 CHO (antibody, V domains shown)
VH: QVQLVQSGAEVKKPGASVKLSCKASGYIFTTYWIHWVKQRPGQGLEWIGMIQPNSGGTKYNDQFKNRATLTVDKSISTAYMELSRLTSDDTAVYYCARGAGTVDYFDYWGQGTTLSISS
VL: DIVLTQSPASLAVSVGQRATITCRASESVDIYGNSFMHWYQQKPGQAPKLLIYRASNLESGIPARFSGSGSRTDFTLTINPVEAQDTATYYCQQSNDDPYTFGGGTKLETK
binds: [5]

B6: 23F11-H4L4 (produced in CHO cells) (antibody, V domains shown)
VH: QVQLVQSGAEVKKPGASVKLSCKASGYIFTTYWMHWVKQRPGQGLEWIGMIQPNSGGTKYNEKFKKKATLTVDKSISTAYMELSRLTSDDTAVYYCARGAGTVDYFDYWGQGSTLTVSS
VL: DIVLTQSPASLAVSVGQRATITCRASESVDIYGNSFMHWYQQKPGQPPKLLIYRASNLESGIPARFSGSGSRTDFTLTINPVEAQDTATYYCQQSTEDPYTFGGGTKLEIK
binds: [9] | [10] | [5]
